Results as given in PubChem BioAssay AID493014 (National Center for Advancing Translational Sciences (NCATS), 2011).
This is one part of the list. The main result of the screen is listed elsewhere. These columns were measured beside it and carry no call. The list favours compounds with an active or inconclusive main result. Words in brackets tell the shape of the fitted curve; partial curves, single points and poor fits give uncertain potencies.

Test: qHTS Assay to Find Inhibitors of Chronic Active B-Cell Receptor Signaling
Conditions: ABC-DLBCL IkBa-CBG/CBR reporter, luminescence ratio (green luciferase fused to IkBa over red control in TMD8 lymphoma cells), 4 h
Method in brief: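 TMD8 ABC-DLBCL cells carrying doxycycline-inducible green luciferase fused to IkappaBalpha plus unfused red luciferase were exposed to compounds (up to 46 uM) for 4 hrs at 37C. Activity came from the overlap-corrected green/red luminescence ratio.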

[1] = measured here: CBR red luminescence, cell number
[2] = measured here: IkBa-CBG green luminescence

COc1ccc(C2Nc3ccccc3C(=O)N2NS(=O)(=O)c2ccc(C)cc2)cc1 (stereo not given)
AC50 [1]: 6.31 µM [rising, single point]

CCOC(=O)c1c(C)[nH]c(NC(=O)NNC(=O)c2ccccc2Cl)c1C
AC50 [1]: 13 µM [falling, partial curve, poor fit]

O=C1N[C@@H](c2ccccc2)COC(=O)[C@H](Cc2ccc(F)cc2)CC/C=C/C[C@@H]1CC(=O)N(CCO)Cc1ccccc1
AC50 [1]: 25.9 µM [falling, single point]

Nc1c(C(=O)Nc2ccc(Cl)cc2)sc2nc(N3CCOCC3)c3c(c12)CCCC3
AC50 [1]: 7.08 µM [falling, partial curve]

COc1cc(C(=O)OCCCN=C2NS(=O)(=O)c3ccccc32)cc(OC)c1OC
AC50 [1]: 3.55 µM [rising, single point]

COC(=O)CCCCCN1C(=O)/C(=C\c2ccncc2)SC1=S
AC50 [1]: 2 µM [falling, full curve]

COc1ccc(NC(=O)c2cc(-c3ccco3)on2)c(OC)c1
AC50 [1]: 5.62 µM [rising, single point]

Cc1ccc(-c2csc3ncnc(SCC(=O)O)c23)cc1
AC50 [1]: 31.6 µM [falling, single point]

CC(=O)C(Cc1ccccc1)NC(=O)COC(=O)c1cccc(C)c1[N+](=O)[O-] (stereo not given)
AC50 [1]: 0.0366 µM [rising, full curve, poor fit]

O=C(Nc1ccc2ccccc2c1)Nc1ccc2snnc2c1
AC50 [1]: 32.6 µM [falling, single point]

CCn1nc(NC(=O)Cc2ccc(OC)cc2)c2cc3cccc(C)c3nc21
AC50 [1]: 11.2 µM [falling, partial curve, poor fit]

CC(=O)c1ccc(N=Nc2ccc(N(C)C)cc2)cc1
AC50 [1]: 35.5 µM [rising, partial curve, poor fit]

Cc1c(C(=O)NCCc2ccc3c(c2)OCCO3)oc2ccccc12
AC50 [1]: 6.51 µM [falling, partial curve]

CC(=O)Nc1cccc(NC(=O)c2ccc([N+](=O)[O-])cc2Cl)c1
AC50 [1]: 16.4 µM [rising, partial curve, poor fit]

Fc1ccc(NC(=S)NCc2cccs2)cc1
AC50 [1]: 29.1 µM [falling, single point]

O=C(CN1C(=O)S/C(=C\c2cccc(Cl)c2)C1=O)NCCCn1ccnc1
AC50 [1]: 17.8 µM [falling, single point]

CCN1CCN(C(=O)CCc2nnc(CCc3ccc(OC)cc3)o2)[C@@H](C)C1=O
AC50 [1]: 14.1 µM [falling, single point]

Cc1ccc(-n2ncc3c(=O)[nH]c(SCC(=O)NCC4CCCO4)nc32)cc1 (stereo not given)
AC50 [1]: 14.6 µM [falling, partial curve, poor fit]

Cc1ccc(C(=O)NC2CCC(C)CC2)s1 (stereo not given)
AC50 [1]: 14.6 µM [falling, partial curve]

FC(F)(F)c1ccc2c(c1)nc1n2CCCC1
AC50 [1]: 10 µM [rising, partial curve]

CCSc1nnc(NC(=O)CSC2=NCCS2)s1
AC50 [1]: 35.5 µM [falling, single point]

COc1ccc(/C(N)=N/OC(=O)CCC2CCCC2)cc1OC
AC50 [1]: 1.78 µM [rising, partial curve, poor fit]

Brc1c(-c2ccccc2)nc2n1Cc1ccccc1-2
AC50 [2]: 12.6 µM [rising, partial curve, poor fit]

C/C(=N\NC(=O)c1cc(C)nc2ccccc12)c1ccccn1
AC50 [1]: 7.31 µM [rising, single point]

COc1ccc(NC(=O)Nc2ccccc2SC)cc1
AC50 [1]: 2.82 µM [falling, full curve]

CCc1cc(C=NC2CCCCC2)c(O)s1
AC50 [1]: 2.51 µM [rising, partial curve]

CC1=NNC(=O)C1Cc1ccccc1C (stereo not given)
AC50 [1]: 3.55 µM [rising, full curve, poor fit]

Cc1ccc(CC(=O)Nc2cccc(C#N)c2)cc1
AC50 [1]: 17.8 µM [rising, partial curve, poor fit]

C=CCC[C@H](Cc1ccc(F)cc1)C(=O)OC[C@@H](Cc1c[nH]c2ccccc12)NC(=O)[C@H](CC=C)CC(=O)NCCO
AC50 [1]: 20.6 µM [falling, single point]

CN(Cc1nc(Cc2ccccc2F)no1)[C@@H]1CS(=O)(=O)C[C@H]1O
AC50 [1]: 0.631 µM [rising, full curve, poor fit]

COC(=O)[C@@H](NC(=O)Nc1ccc2c(c1)OCCO2)C(C)C
AC50 [1]: 11.2 µM [rising, partial curve, poor fit]

COC(=O)c1cc(OC)c(OC)cc1NC(=O)C(C)Sc1ccc(C)cc1 (stereo not given)
AC50 [1]: 29.1 µM [rising, single point]

O=C(COc1ccc(Cl)cc1Br)Nc1ccccc1N1CCCC1
AC50 [1]: 25.9 µM [rising, single point]

Cc1ccc(-c2noc(C3CCCN(S(=O)(=O)c4ccc5ccccc5c4)C3)n2)o1 (stereo not given)
AC50 [1]: 3.26 µM [rising, full curve, poor fit]

COC(=O)c1nc(-c2ccccc2)oc1N(C)C
AC50 [1]: 29.1 µM [rising, single point]

N[C@@H](Cc1ccccc1)c1nnc(SCc2ccccc2F)o1
AC50 [1]: 17.8 µM [rising, partial curve, poor fit]

O=C(c1cc(F)cc2c1OCOC2)N1CCN(c2ccc(F)cc2)CC1
AC50 [1]: 0.501 µM [rising, full curve, poor fit]

O=C(NCc1csc(-c2cccs2)n1)Nc1cccc(Cl)c1
AC50 [1]: 31.6 µM [rising, single point]

O=c1[nH]c(C2CCN(S(=O)(=O)c3ccccc3F)CC2)nc2c1nnn2Cc1ccc(F)cc1
AC50 [1]: 12.6 µM [falling, partial curve, poor fit]

CCn1c(O)c(N=NC(=O)Cc2csc(N3CCOCC3)n2)c2ccccc21
AC50 [1]: 17.8 µM [falling, single point]

CCc1cccc(NC(=O)C2CCCN2S(=O)(=O)c2ccccc2C(F)(F)F)c1 (stereo not given)
AC50 [1]: 20.6 µM [falling, single point]

COc1ccc(C2C(C(C)=O)=C(O)C(=O)N2Cc2ccccc2)c(OC)c1 (stereo not given)
AC50 [1]: 35.5 µM [rising, single point]

CSc1ncccc1C(=O)Nc1nc(C(C)(C)C)cs1
AC50 [1]: 15.8 µM [falling, partial curve]

COC(=O)c1ccc(O)c(Sc2cc(C(=O)OC)ccc2O)c1
AC50 [1]: 29.1 µM [falling, single point]

CCC(OC(=O)C1=Cc2ccccc2OC1)C(=O)NC1CCCC1 (stereo not given)
AC50 [1]: 5.8 µM [rising, partial curve, poor fit]

CC(C)=CC(=O)Nc1nnc(-c2ccccc2)s1
AC50 [1]: 0.0517 µM [rising, full curve]

CS(=O)(=O)N(CC(=O)NCC1CCCO1)c1cccc([N+](=O)[O-])c1 (stereo not given)
AC50 [1]: 3.55 µM [rising, single point]

O=C(CNC(=O)c1ccc(Cl)cc1Cl)NCC1CCCO1 (stereo not given)
AC50 [1]: 2.51 µM [rising, full curve, poor fit]

CCN(CC(=O)Nc1ccccc1C(F)(F)F)C(=O)c1cccc(N2C(=O)CCC2=O)c1
AC50 [1]: 29.1 µM [rising, single point]

Cn1c(=O)[nH]c(=O)c2c1nc(NCCCn1ccnc1)n2Cc1cccc(Br)c1
AC50 [1]: 0.0291 µM [rising, full curve, poor fit]

CCC(C)(C)n1nnnc1C(C(C)C)N1CCSCC1 (stereo not given)
AC50 [1]: 0.092 µM [rising, partial curve, poor fit]

Fc1ccc(COc2cccc3cccnc23)cc1
AC50 [1]: 35.5 µM [falling, single point]

CCOc1cc(C(=O)N2CCc3cc(OC)c(OC)cc3C2)ccc1OC(F)F
AC50 [1]: 3.16 µM [rising, full curve, poor fit]
AC50 [2]: 2.82 µM [falling, full curve]

CCC(=O)c1ccc(OCC(=O)OCC(=O)Nc2ccc3c(c2)OCCO3)cc1
AC50 [1]: 5.8 µM [rising, full curve, poor fit]

O=C(O)CC(NC(=O)c1cccc(F)c1)c1ccc(OC2CCCC2)cc1 (stereo not given)
AC50 [1]: 17.8 µM [rising, single point]

C#CCOCCOCCOCCNc1nc(N2CCN(C(=O)CCCCCCCCCCNC(=O)Cn3cc(C[C@@H](C)O)nn3)CC2)nc(N2CCN(C(=O)CCCCCCCCCCNC(=O)[C@H](CO)n3cc(CCCSC)nn3)CC2)n1
AC50 [1]: 29.1 µM [rising, single point]

COc1ccc2nc(N(CCN(C)C)C(=O)/C=C/c3cccs3)sc2c1
AC50 [1]: 35.5 µM [falling, single point]

CCc1cccc(NC(=S)N(CCCN2CCOCC2)C(C)c2cc3cccc(OC)c3o2)c1 (stereo not given)
AC50 [1]: 12.6 µM [falling, single point]

CCC(C)Sc1cc(-c2nc3ccc(Cl)cn3c2NC2CCCCC2)ccc1OC (stereo not given)
AC50 [1]: 5.8 µM [falling, partial curve, poor fit]

CCOC(=O)c1ccc2c(c1)[nH]c(=S)n2CC
AC50 [1]: 11.2 µM [rising, single point]

COc1ccc(CN(C(=O)c2ccc(-c3ccccc3)[nH]2)C(C(=O)NC(C)(C)C)c2ccncc2)cc1 (stereo not given)
AC50 [1]: 35.5 µM [falling, single point]
AC50 [2]: 22.4 µM [rising, partial curve, poor fit]

COc1ccc(C(=O)/C=C/c2ccc(N3CCCCC3)c([N+](=O)[O-])c2)cc1
AC50 [1]: 29.1 µM [falling, partial curve, poor fit]

Cc1ccc(NC(=S)N(CCCN2CCN(C)CC2)Cc2cccs2)cc1C
AC50 [1]: 12.6 µM [falling, single point]
